Experimental data taken from patent US20050208394A1, “Dye-containing curable composition, color filter and method of producing the color filter” (FUJI PHOTO FILM CO., LTD., priority 2004, published 2005).

Assay: Pattern shape: sectional shape of the formed pattern image by SEM
Set-up: key: A: The pattern section had a sharp rectangular.; B: The pattern section was found to have a slightly taper shape.; C: The pattern section had a taper shape
Settings: 20 μm pattern image

Row | Compound | Pattern shape (positive type) | Pattern shape (negative type)
1 | Cc1cc(C)n(-c2ccc3c(c2)-c2nc-3nc3[n-]c(nc4nc(nc5[n-]c(n2)c2ccc(-n6nc(C)cc6C)cc52)-c2cc(-n5nc(C)cc5C)ccc2-4)c2ccc(-n4nc(C)cc4C)cc32)n1.[Ni+2] [Exemplified compound (16)] | A | 
2 | Tetra-α-(3,5-dimethylpyrazolyl)zinc phthalocyanine [Exemplified compound (3)] | A | A
3 | Tetra-β-(3,5-dimethylpyrazolyl)zinc phthalocyanine [Exemplified compound (4)] | A | A
